We go through one substance from article PMC1940015.

Chains of the proteins cited; added tags and fusions are not shown.
UniProt Q66H76: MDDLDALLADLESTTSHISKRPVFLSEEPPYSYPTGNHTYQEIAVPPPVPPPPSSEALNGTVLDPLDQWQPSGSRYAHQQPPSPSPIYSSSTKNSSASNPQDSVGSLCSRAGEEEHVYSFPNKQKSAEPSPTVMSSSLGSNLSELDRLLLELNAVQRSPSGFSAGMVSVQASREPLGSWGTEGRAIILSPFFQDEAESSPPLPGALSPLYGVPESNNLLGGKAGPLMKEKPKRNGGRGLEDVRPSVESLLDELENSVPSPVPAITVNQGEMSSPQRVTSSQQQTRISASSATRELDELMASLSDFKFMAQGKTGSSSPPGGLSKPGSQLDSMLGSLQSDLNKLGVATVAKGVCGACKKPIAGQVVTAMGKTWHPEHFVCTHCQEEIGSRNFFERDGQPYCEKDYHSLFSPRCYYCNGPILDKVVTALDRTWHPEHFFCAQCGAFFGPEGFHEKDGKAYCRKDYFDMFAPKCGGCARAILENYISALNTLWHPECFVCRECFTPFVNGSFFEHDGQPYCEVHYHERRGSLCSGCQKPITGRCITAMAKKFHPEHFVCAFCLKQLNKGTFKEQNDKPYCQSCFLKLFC

Residue numbers refer to the chain shown, from its start. These are yes or no findings as the source states them, for the method shown. Binding seen in cells or lysates may run through a third protein. Some binding calls cover weakened binding; strength is not graded here.

The target of one assay is T1, α4S990A (human) (UniProt P13612).
T1 sequence (chain, biotin (cell surface molecules labelled with NHS-LC-Biotin)): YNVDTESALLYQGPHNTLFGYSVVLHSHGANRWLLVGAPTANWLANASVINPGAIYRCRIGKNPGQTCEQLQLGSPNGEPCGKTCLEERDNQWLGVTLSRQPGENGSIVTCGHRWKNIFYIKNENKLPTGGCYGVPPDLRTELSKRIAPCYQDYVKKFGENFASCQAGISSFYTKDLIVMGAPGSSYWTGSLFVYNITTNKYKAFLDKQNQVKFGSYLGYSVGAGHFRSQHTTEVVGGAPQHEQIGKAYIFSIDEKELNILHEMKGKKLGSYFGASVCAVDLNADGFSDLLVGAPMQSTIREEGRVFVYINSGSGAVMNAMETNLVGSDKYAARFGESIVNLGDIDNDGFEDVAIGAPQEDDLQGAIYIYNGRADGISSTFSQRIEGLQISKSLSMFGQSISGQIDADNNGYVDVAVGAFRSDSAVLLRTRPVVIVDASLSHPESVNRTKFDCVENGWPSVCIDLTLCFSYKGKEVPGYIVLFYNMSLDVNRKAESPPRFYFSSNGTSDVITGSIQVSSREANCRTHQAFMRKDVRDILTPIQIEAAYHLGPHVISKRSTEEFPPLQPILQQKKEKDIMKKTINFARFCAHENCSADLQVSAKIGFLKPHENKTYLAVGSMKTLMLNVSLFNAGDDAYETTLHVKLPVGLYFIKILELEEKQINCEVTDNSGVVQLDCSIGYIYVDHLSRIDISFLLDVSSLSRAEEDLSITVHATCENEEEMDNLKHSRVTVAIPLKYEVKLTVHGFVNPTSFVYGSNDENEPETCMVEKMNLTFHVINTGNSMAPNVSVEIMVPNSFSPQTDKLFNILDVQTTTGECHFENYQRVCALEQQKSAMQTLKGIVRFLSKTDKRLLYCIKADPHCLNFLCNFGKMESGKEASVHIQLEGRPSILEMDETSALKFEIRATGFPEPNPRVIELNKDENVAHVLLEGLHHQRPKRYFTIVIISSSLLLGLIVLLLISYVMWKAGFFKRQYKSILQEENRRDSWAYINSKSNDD
The experiment in a line: co-IP; 1% Triton X-100 lysates of biotin-labelled PC12 cells expressing the α4 constructs; immunoprecipitated overnight at 4°C with anti-human α4 extracellular domain antibody; beads washed with 0.5 M NaCl, 1% NP40 buffer; western blot with anti-paxillin antibody.

A further assay has as its target T2, α4Y991A (human) (UniProt P13612).
T2 sequence (chain, biotin (cell surface molecules labelled with NHS-LC-Biotin)): T1 sequence (chain, biotin (cell surface molecules labelled with NHS-LC-Biotin)) with A990S, Y991A
Described as above.

With “paxillin (endogenous in PC12 cells) (from UniProt Q66H76 1-586)”, the binding entry with α4S990A (human) and with α4Y991A (human) was “binds” each time.
